Results are given in words; binding and its absence hold for the method and conditions named. Tags and fused reporters may be left off the sequences shown.
Experiments:
[1] = target: T1, GST fusion of the RGS12 RGS domain (aa 664–885) (UniProt O14924); assay: SPR; Biacore 3000; GST-RGS12 RGS domain captured on anti-GST antibody on a CM5 chip; Gαo injected in the presence of GDP, GTP or GTPγS; both purified
T1 sequence: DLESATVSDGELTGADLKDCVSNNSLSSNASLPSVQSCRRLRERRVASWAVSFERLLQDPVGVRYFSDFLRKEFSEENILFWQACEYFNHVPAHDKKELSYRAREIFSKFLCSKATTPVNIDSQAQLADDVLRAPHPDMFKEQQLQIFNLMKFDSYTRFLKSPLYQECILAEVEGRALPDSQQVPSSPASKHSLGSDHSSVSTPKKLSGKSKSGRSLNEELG

Sequences of proteins named here, by UniProt entry; tags and fusion partners are left off. A change or cut given only in a name is not applied to a line headed by its entry.
UniProt P09471: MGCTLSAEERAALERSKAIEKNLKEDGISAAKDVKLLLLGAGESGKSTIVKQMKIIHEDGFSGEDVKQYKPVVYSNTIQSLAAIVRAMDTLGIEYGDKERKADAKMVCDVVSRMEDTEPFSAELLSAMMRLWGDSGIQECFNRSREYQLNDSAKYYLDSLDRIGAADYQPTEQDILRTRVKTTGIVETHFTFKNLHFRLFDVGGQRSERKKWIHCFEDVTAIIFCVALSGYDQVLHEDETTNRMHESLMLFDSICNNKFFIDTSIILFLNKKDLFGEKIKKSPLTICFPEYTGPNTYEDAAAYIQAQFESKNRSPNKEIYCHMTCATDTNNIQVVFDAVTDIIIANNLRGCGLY

[2] = target: T1, GST fusion of the RGS12 RGS domain (aa 664–885); assay: SPR; Biacore 3000; GST-RGS12 RGS domain captured on anti-GST antibody on a CM5 chip; Gαo injected in the GDP·AlF4- state; equilibrium binding isotherm; both purified

- binding [1]: no binding (tested: 25 µM)
- binding [2]: no binding (tested: 25 µM)
Substance: GαoA(G42R), full-length, hexahistidine-tagged (from UniProt P09471 1-354)

Reference: paper PMC3285607
